Assay results reported in PubChem BioAssay (NCATS).
Inconclusive means that the source gave no clear call. Such entries were picked first, then a sample of the others. Where the call is inconclusive, the potency comes from a doubtful curve fit. The source made the active and inactive calls. The call rests on the fitted dose curve; in most records, active means well fitted inhibition curve with a large enough effect; inconclusive means small, poorly fitted or top-dose-only effect; inactive means no such curve, though single readings can be large or run the other way.

Chains of the proteins cited; added tags and fusions are not shown.
UniProt P05177, whole entry, looked up: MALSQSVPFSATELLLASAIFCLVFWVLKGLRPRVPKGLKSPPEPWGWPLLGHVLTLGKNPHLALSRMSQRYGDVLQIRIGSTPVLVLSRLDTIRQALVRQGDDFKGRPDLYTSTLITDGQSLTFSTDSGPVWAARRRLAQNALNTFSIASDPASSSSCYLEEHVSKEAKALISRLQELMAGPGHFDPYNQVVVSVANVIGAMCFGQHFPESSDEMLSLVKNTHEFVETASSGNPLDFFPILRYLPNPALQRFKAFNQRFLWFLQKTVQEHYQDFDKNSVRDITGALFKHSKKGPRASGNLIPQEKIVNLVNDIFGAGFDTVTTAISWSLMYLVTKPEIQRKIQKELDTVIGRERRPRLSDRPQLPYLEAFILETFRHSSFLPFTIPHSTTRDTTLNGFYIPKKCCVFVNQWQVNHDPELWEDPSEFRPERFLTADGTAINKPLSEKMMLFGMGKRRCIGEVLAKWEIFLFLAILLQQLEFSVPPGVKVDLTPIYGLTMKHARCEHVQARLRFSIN

molecular target: Cytochrome P450 1A2 (Homo sapiens) (UniProt P05177); test: qHTS for inhibitors of CYPIA2 against the NCATS DSHEA and TCM libraries (AID 1919976); settings: recombinant CYP1A2 enzyme activity, luminescence; series mostly up to 37 µM; activity change, negative = inhibition: at the top concentration;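 on activity change, negative = inhibition: light from luciferin formed by CYP1A2 from a pro-luciferin substrate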
Method in brief: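 CYP1A2 + luciferin substrate, 100 mM KPO4-type buffer; cmpd 15 min RT; 1x NADPH regen, 30-45 min RT dark; detection reagent 30 min RT; luminescence. Minus-enzyme wells as background; furafylline intraplate control.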
On the % scale 0 is the no-effect control and ±100 the full control effect; potency means the concentration at half of the fitted maximal effect.

| SMILES | Potency | activity change, negative = inhibition |
| --- | --- | --- |
| CC1=CCC(C(C)(C)O)CC1 (stereo unspecified) | inconclusive: 3.55 µM [inhibitor, full curve] | – |
| CC(C)=CCC[C@@](C)(O)[C@H]1CC=C(C)CC1 | – | inactive: 8.39% |
| C=CCc1ccc(O)c(OC)c1 | inconclusive: 25.1 µM [inhibitor, partial curve] | – |
| CC1=C(C/C=C(\C)CCC[C@H](C)CCC[C@H](C)CCCC(C)C)C(=O)c2ccccc2C1=O | inconclusive: 28.2 µM [inhibitor, partial curve] | – |
| CC1=C(/C=C/C(C)=C/C=C/C(C)=C/C=C/C=C(C)/C=C/C=C(C)/C=C/C2=C(C)CCCC2(C)C)C(C)(C)CCC1 | inconclusive: 14.1 µM [inhibitor, single point] | – |
| O=c1ccc2ccccc2o1 | inconclusive: 22.4 µM [inhibitor, partial curve, poor fit] | – |
